Measurements reported in the supplement of paper PMC10849652.
Some of the results follow. Residues, ends and D or L forms follow the SMILES beside them. *: point of attachment. Cbz = O=C(OCc1ccccc1)*

Chains of the proteins cited; added tags and fusions are not shown. Lines headed by an entry give the natural chain unless they say otherwise; changes in a name come on top.
UniProt Q9NXW9: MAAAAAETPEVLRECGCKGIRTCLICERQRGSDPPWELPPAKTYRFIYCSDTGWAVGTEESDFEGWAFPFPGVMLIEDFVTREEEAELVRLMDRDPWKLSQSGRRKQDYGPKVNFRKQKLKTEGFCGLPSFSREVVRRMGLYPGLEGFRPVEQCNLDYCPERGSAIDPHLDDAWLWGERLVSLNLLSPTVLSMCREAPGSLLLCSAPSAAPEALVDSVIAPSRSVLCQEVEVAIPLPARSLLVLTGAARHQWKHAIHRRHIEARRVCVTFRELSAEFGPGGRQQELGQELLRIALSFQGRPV
UniProt P55008: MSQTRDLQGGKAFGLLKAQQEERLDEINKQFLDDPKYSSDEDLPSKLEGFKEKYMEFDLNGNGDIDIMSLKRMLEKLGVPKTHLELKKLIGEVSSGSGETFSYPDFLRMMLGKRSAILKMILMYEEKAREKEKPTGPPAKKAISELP
UniProt P07327: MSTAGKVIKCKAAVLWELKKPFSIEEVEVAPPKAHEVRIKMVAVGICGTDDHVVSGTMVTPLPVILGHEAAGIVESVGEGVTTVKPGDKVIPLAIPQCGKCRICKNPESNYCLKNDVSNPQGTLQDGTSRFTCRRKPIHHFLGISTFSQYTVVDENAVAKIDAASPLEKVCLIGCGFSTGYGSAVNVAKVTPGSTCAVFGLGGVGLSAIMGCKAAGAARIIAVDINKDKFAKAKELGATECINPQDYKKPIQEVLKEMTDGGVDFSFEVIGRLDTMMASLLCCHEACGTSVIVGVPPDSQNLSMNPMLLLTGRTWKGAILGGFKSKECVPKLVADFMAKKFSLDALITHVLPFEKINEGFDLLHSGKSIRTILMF
UniProt Q9UPQ3: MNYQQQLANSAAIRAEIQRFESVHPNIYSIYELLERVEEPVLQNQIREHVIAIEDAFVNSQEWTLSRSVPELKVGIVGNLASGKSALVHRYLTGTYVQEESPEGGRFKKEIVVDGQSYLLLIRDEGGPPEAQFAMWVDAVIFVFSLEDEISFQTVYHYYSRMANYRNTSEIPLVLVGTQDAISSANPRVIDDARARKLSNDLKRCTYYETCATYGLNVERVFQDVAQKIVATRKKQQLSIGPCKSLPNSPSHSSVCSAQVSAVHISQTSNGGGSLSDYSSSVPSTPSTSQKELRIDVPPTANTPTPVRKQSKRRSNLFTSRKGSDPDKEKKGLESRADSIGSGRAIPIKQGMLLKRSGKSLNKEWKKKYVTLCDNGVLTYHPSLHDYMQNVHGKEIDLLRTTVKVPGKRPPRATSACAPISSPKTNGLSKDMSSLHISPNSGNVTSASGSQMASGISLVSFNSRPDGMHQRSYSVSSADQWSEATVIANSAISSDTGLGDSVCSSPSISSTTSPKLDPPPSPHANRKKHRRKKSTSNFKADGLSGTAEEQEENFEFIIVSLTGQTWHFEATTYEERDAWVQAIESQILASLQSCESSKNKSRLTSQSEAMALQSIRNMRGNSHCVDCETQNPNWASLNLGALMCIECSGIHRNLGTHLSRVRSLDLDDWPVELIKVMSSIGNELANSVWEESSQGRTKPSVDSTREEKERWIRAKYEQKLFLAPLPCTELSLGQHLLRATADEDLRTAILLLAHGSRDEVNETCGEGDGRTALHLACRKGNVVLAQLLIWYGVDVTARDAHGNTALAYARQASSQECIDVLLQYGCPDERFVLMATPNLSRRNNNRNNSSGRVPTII
UniProt P54922: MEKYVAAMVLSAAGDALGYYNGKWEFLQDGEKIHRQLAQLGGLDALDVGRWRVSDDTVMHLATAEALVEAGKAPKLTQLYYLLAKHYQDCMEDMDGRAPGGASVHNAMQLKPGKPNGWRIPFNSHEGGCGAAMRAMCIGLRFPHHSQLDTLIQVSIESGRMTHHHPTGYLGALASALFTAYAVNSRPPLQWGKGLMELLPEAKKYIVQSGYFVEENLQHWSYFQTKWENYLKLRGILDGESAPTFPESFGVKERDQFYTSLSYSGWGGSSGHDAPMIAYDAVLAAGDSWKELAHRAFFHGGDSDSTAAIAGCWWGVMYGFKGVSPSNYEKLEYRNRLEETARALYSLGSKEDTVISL
UniProt Q9Y672: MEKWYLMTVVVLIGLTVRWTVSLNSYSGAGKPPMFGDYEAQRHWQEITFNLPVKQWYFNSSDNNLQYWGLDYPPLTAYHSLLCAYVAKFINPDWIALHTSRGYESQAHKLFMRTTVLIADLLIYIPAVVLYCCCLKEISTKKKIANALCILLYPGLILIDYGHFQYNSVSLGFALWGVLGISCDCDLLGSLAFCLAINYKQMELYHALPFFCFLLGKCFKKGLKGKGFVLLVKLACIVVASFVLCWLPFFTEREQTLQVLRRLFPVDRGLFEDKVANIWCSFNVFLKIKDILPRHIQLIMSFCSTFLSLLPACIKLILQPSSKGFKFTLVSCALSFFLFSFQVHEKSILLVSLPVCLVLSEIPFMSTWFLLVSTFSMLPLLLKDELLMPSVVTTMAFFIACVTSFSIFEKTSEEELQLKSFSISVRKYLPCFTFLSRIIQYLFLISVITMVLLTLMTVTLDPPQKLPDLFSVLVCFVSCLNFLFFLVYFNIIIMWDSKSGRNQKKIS
UniProt Q9UKA4: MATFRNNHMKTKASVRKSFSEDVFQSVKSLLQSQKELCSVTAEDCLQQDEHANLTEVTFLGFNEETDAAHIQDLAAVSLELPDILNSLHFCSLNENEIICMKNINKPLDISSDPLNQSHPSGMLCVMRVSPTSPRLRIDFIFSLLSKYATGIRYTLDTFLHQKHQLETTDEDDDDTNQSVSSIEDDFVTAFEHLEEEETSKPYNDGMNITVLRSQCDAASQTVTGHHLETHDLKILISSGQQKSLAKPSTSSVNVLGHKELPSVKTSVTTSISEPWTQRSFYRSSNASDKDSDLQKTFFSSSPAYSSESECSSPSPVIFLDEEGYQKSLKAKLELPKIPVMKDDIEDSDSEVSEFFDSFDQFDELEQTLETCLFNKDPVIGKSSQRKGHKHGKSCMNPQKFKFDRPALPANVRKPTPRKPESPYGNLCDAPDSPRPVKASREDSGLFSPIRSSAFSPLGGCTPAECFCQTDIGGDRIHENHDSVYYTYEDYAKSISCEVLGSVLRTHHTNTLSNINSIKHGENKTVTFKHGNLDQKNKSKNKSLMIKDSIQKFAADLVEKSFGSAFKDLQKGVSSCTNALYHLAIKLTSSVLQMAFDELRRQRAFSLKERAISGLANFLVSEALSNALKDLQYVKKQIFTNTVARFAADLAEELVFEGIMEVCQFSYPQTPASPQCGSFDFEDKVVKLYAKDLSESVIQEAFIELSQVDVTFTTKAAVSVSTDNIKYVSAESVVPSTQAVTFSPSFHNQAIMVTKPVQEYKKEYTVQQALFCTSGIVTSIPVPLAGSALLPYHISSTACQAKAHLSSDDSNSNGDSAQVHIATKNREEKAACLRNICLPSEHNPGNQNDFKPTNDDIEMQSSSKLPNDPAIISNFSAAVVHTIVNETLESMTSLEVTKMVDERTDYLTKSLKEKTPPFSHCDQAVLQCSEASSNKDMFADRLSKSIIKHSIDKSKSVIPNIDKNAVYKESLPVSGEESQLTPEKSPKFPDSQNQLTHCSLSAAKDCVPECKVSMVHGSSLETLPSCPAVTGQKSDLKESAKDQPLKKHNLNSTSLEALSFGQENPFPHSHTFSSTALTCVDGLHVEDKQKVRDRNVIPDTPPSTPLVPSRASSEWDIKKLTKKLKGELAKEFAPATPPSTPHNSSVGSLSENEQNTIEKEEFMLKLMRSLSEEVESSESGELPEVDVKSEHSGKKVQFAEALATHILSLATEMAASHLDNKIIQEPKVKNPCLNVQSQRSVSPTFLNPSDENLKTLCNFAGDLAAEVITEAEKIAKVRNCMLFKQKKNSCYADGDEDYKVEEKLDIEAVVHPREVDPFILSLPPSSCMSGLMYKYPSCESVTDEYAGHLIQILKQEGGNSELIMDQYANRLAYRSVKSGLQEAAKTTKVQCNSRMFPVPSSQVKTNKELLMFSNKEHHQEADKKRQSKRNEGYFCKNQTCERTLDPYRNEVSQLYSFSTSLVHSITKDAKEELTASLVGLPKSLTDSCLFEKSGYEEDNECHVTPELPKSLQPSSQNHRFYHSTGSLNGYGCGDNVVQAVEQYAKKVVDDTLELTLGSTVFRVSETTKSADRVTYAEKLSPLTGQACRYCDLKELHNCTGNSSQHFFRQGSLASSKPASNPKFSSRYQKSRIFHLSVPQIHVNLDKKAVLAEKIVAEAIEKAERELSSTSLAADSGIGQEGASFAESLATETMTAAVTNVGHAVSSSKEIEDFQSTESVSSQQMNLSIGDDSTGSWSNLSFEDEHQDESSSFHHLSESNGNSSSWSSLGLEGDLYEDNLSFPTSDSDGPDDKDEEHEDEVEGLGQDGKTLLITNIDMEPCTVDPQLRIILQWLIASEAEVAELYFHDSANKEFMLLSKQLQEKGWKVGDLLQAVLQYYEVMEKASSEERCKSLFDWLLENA
UniProt Q9H2P0: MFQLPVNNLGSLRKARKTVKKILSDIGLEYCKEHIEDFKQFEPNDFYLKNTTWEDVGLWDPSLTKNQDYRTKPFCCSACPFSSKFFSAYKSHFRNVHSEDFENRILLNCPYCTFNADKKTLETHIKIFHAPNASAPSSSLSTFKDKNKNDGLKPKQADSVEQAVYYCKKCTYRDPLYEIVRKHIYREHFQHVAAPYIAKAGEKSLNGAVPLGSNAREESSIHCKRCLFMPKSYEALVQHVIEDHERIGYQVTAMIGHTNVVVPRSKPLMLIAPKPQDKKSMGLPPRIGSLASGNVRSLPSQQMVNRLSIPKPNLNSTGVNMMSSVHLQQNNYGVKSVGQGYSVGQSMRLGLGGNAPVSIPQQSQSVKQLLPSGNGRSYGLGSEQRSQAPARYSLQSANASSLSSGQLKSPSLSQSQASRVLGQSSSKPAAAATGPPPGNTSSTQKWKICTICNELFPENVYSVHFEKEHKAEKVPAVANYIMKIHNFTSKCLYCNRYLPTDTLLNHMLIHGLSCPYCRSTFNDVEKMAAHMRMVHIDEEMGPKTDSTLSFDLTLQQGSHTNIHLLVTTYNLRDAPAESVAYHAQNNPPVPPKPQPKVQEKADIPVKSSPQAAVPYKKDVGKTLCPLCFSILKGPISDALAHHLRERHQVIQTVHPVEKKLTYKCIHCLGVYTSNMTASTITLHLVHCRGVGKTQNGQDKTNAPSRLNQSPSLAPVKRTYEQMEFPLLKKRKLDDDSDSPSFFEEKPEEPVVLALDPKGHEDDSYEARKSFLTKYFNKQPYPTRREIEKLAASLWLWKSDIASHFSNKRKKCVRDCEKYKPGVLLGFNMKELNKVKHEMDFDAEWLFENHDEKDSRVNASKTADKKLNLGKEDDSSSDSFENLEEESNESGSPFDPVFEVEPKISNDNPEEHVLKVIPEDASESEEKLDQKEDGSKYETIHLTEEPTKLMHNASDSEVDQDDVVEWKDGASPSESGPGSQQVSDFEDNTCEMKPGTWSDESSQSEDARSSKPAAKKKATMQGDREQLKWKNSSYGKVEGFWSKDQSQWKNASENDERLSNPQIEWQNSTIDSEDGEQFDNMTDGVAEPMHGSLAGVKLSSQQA
UniProt Q6QNK2: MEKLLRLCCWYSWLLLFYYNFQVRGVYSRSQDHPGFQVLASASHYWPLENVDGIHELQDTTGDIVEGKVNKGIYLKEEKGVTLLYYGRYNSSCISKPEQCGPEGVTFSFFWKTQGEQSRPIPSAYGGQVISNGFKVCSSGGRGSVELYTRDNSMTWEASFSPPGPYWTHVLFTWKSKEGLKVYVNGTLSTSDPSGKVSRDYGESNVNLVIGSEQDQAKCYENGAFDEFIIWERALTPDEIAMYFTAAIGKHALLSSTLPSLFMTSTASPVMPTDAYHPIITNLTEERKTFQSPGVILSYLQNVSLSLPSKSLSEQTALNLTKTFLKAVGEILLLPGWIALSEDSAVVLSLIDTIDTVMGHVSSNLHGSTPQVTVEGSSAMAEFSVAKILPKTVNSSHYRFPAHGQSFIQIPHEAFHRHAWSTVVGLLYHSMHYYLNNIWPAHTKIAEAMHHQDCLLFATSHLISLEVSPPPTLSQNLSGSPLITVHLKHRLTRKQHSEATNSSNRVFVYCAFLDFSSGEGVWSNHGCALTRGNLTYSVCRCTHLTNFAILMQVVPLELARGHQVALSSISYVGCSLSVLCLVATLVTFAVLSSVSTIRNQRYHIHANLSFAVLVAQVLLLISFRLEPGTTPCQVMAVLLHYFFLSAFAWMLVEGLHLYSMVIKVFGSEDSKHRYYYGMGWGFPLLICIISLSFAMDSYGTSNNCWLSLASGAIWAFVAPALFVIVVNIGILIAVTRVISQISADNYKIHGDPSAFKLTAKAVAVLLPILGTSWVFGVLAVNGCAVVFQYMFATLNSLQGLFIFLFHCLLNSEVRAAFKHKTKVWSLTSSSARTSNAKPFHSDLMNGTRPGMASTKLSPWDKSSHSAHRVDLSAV

Legend:
Assay in all cases: log2 fold change, soluble protein after heating vs DMSO (PISA); higher = thermal stabilisation; K562 cells, 10 uM, 30 min; active = over 0.2 and 3.5 SD of the protein, either way, in both replicates (recomputed)
[1] = compound: C1COCCN1CCN2C3=CC=CC=C3N=C2NC(=O)C4=CC(=CC=C4)[N+](=O)[O-] [IRAK-1-4 Inhibitor I]
Method in brief: (§1)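 Quantification of soluble protein used TMTpro 16plex LC-MS/MS, with channel sums equalised. Samples were the supernatant after 21,000xg for 90 min of pooled aliquots from K562 cells (2×10^6 cells/mL) treated with 10 μM compound for 30 min, heated for 3 min over 48°C-58°C, and extracted in PBS with 0.5% NP-40 at 4°C. Values, from duplicates, describe thermal stability against control samples on a log2 fold-change scale.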

[2] = compound: C=CC(=O)N1CCC[C@@H](n2nc(-c3ccc(Oc4ccccc4)cc3)c3c(N)ncnc32)C1 [ibrutinib]
Method in brief: as §1

[3] = compound: CC(=O)c1cnc2ccc(-c3cc(Cl)c(O)c(Cl)c3)nc2c1N[C@H]1CC[C@H](CN(C)C)CC1
Method in brief: as §1

[4] = compound: CC(C)(C)Cn1c(N)nc2ccc(-c3[nH]c(C(C)(C)C)nc3-c3ccc(F)cc3)nc21 [ralimetinib]
Method in brief: as §1

[5] = compound: CC(C)(O)CC(=O)NCCn1ccc2ncnc(Nc3ccc(Oc4cccc(C(F)(F)F)c4)c(Cl)c3)c21
Method in brief: as §1

[6] = compound: CC(C)C1=C2N=C(C=C(N2N=C1)NCC3=CC=CC=C3)NCCCCCCN
Method in brief: as §1

[7] = compound: CC(C)C[C@@H](C=O)NC(=O)[C@H](CC(C)C)NC(=O)[C@H](CC(C)C)NC(=O)OCc1ccccc1
Method in brief: as §1

[8] = compound: CC(C)N(C[C@H]1O[C@@H](n2cnc3c(N)ncnc32)[C@H](O)[C@@H]1O)[C@H]1C[C@@H](CCc2nc3cc(C(C)(C)C)ccc3[nH]2)C1 [pinometostat]
Method in brief: as §1

[9] = compound: CC1=C(C2=C(C=C1)C(=O)C3=CC=CC=C3N2CCCN)C
Method in brief: as §1

[10] = compound: CC1=C(C=C(C=C1)NC(=O)C2=CC(=CC=C2)C(C)(C)C#N)NC3=CC4=C(C=C3)N=CN(C4=O)C
Method in brief: as §1

[11] = compound: CC1=C(C=C(C=C1)NC(=O)C2=CC(=CC=C2)N(C)C)NC(=O)C3=CC=C(C=C3)O
Method in brief: as §1

[12] = compound: CC1=CC=C(C=C1)SC2=C3C=C(SC3=CN=C2)C(=O)N
Method in brief: as §1

[13] = compound: CC1=NC(=CC=C1)C2=C(N=C(N2)C(C)(C)C)C3=CC4=NC=CN=C4C=C3
Method in brief: as §1

[14] = compound: CCCCN(Cc1ccc(C(=O)NO)cc1)C(=O)Nc1ccccc1 [Nexturastat A]
Method in brief: as §1

[15] = compound: CCCS(=O)(=O)Nc1ccc(F)c(C(=O)c2c[nH]c3ncc(-c4ccc(Cl)cc4)cc23)c1F [vemurafenib]
Method in brief: as §1

[16] = compound: CCCS(=O)(=O)Nc1ccc(F)c(C(=O)c2c[nH]c3ncc(Cl)cc23)c1F
Method in brief: as §1

[17] = compound: CCCc1cc(C)[nH]c(=O)c1CNC(=O)c1cc(-c2ccnc(N3CCN(C)CC3)c2)cc2c1cnn2C(C)C
Method in brief: as §1

[18] = compound: CCN(CC)Cc1ccc2cc(COC(=O)Nc3ccc(C(=O)NO)cc3)ccc2c1 [givinostat]
Method in brief: as §1

[19] = compound: CCN(CCCOc1ccc2c(Nc3cc(CC(=O)Nc4cccc(F)c4)[nH]n3)ncnc2c1)CCOP(=O)(O)O [barasertib]
Method in brief: as §1

[20] = compound: CC1=C(C(CC(=O)N1)C2=CC=C(C=C2)C(F)(F)F)C(=O)NC3=C(C=C4C(=C3)C=NN4)F
Method in brief: as §1

Measured: log2 fold change

ALKBH4 (UniProt Q9NXW9)
inactive: [1] 0.009 | [2] -0.126 | [3] -0.07 | [4] 0.017 | [5] -0.12 | [6] -0.086 | [7] -0.033 | [8] -0.065 | [9] -0.11 | [10] 0.071 | [11] -0.008 | [12] -0.015 | [13] 0.019 | [14] -0.125 | [15] -0.048 | [16] 0.032 | [17] -0.015 | [18] -0.05 | [19] -0.016

ALKBH2 (UniProt Q6NS38)
inactive: [1] -0.07 | [2] 0.206 | [3] 0.019 | [4] 0.067 | [5] 0.095 | [7] 0.022 | [8] -0.038 | [20] 0.093 | [9] 0.132 | [10] -0.171 | [11] 0.196 | [12] -0.217 | [13] -0.015 | [14] 0.225 | [15] -0.042 | [16] -0.146 | [17] -0.088 | [19] 0.017

ALDH3A2 isoform 2 (UniProt P51648)
inactive: [1] 0.158 | [2] 0.086 | [6] -0.177 | [8] -0.008 | [13] -0.236 | [15] -0.032 | [18] -0.136 | [19] 0.074

AIF1 (UniProt P55008)
inactive: [2] 0.012 | [3] 0.028 | [4] -0.112 | [5] 0.035 | [6] -0.033 | [7] 0.07 | [10] -0.042 | [11] -0.039 | [12] -0.056 | [14] 0.048 | [15] -0.112 | [16] 0 | [18] -0.057 | [19] -0.102

ADH1A (UniProt P07327)
inactive: [1] 0.079 | [8] 0.004 | [10] 0.03 | [13] 0.011

Fetched one by one from the list above, 2 records:
ADH1A (UniProt P07327)
inactive: [1] 0.079 | [8] 0.004 | [10] 0.03 | [13] 0.011

ALKBH4 (UniProt Q9NXW9)
inactive: [1] 0.009 | [2] -0.126 | [3] -0.07 | [4] 0.017 | [5] -0.12 | [6] -0.086 | [7] -0.033 | [8] -0.065 | [9] -0.11 | [10] 0.071 | [11] -0.008 | [12] -0.015 | [13] 0.019 | [14] -0.125 | [15] -0.048 | [16] 0.032 | [17] -0.015 | [18] -0.05 | [19] -0.016

Further entries follow.

ADD1 isoform 4 (UniProt P35611)
inactive: [1] -0.21 | [2] 0.029 | [5] -0.117 | [8] 0.122 | [13] 0.098 | [14] 0.024 | [19] 0.03

AGAP1 (UniProt Q9UPQ3)
inactive: [1] -0.109 | [4] -0.125 | [6] -0.232 | [7] 0.186 | [8] 0.01 | [11] -0.165 | [13] 0.096 | [15] 0.029 | [18] 0.037

AKIRIN2 (UniProt Q53H80)
inactive: [1] 0.036 | [3] -0.194 | [4] -0.05 | [5] 0.43 | [6] -0.018 | [7] 0.258 | [8] 0.044 | [20] 0.058 | [9] -0.024 | [10] 0.106 | [11] -0.056 | [12] 0.037 | [13] -0.083 | [14] 0.261 | [15] -0.021 | [16] -0.137 | [17] -0.18 | [18] 0.107

ADPRH (UniProt P54922)
inactive: [1] 0.056 | [2] 0.001 | [4] -0.003 | [5] -0.084 | [6] 0.107 | [7] -0.033 | [8] 0.021 | [9] 0.037 | [10] 0.014 | [11] -0.008 | [12] -0.002 | [13] -0.134 | [14] 0.015 | [15] 0.071 | [16] -0.037 | [17] -0.005 | [18] 0.025 | [19] -0.036

ANAPC15 isoform 2 (UniProt P60006)
inactive: [1] 0.163 | [3] 0.097 | [6] 0.054 | [8] -0.035 | [9] -0.164 | [12] -0.121 | [13] -0.004 | [15] -0.061 | [16] 0.007 | [18] 0.093

ALG6 (UniProt Q9Y672)
inactive: [1] -0.035 | [2] -0.086 | [3] -0.05 | [5] -0.047 | [6] -0.038 | [8] -0.001 | [20] 0.001 | [9] 0.149 | [10] 0.092 | [12] 0.044 | [13] -0.02 | [14] -0.032 | [15] -0.041 | [16] 0.065 | [17] 0.023 | [18] 0.055 | [19] 0.024

AKAP11 (UniProt Q9UKA4)
inactive: [1] -0.019 | [8] 0.046 | [10] 0.047 | [13] -0.209

ADCK5 (UniProt Q3MIX3)
inactive: [1] -0.067 | [4] 0.027 | [5] -0.041 | [6] 0.059 | [7] 0.098 | [8] -0.043 | [9] -0.052 | [10] 0.044 | [11] 0.036 | [13] 0.011 | [14] -0.195 | [15] 0.202 | [18] 0.032

ALKBH8 isoform 4 (UniProt Q96BT7)
inactive: [1] 0.123 | [2] 0.079 | [5] -0.136 | [8] -0.1 | [10] -0.038 | [13] -0.193 | [14] -0.013 | [17] 0 | [19] 0.007

ADNP (UniProt Q9H2P0)
inactive: [1] -0.051 | [3] -0.233 | [8] 0.008 | [20] 0.01 | [10] 0.012 | [13] -0.004 | [17] 0.112

ADGRD1 isoform 4 (UniProt Q6QNK2)
inactive: [1] -0.16 | [3] -0.107 | [8] -0.099 | [9] 0.203 | [13] 0.181 | [15] 0.042 | [17] -0.038

ADCY3 (UniProt O60266)
inactive: [1] -0.034 | [3] -0.168 | [4] -0.038 | [6] -0.132 | [7] 0.076 | [8] 0.109 | [9] 0.171 | [10] -0.006 | [11] 0.02 | [12] 0.135 | [13] 0.043 | [15] -0.17 | [16] 0.024 | [18] 0.007

ALDH2 isoform 2 (UniProt P05091)
inactive: [2] -0.1 | [3] -0.133 | [4] -0.18 | [5] 0.029 | [7] 0.063 | [9] 0.087 | [10] 0.075 | [11] -0.049 | [12] -0.106 | [14] -0.103 | [15] -0.023 | [16] -0.141 | [19] 0.099

AMBP (UniProt P02760)
inactive: [1] 0.053 | [2] 0.251 | [6] -0.095 | [8] -0.285 | [12] 0.111 | [13] -0.045 | [15] 0.223 | [16] -0.244 | [17] -0.266 | [18] -0.272 | [19] -0.068

AEBP2 (UniProt Q6ZN18)
inactive: [1] -0.13 | [2] -0.113 | [5] -0.018 | [6] 0.404 | [8] -0.107 | [13] 0.257 | [14] -0.03 | [18] 0.113 | [19] 0.24

ADGB (UniProt Q8N7X0)
inactive: [1] 0.183 | [5] 0.008 | [8] 0.078 | [12] -0.019 | [13] -0.322 | [14] 0.019 | [16] -0.056 | [17] 0.077

ADIPOR1 (UniProt Q96A54)
inactive: [1] -0.077 | [2] -0.076 | [4] -0.062 | [5] -0.065 | [6] -0.161 | [7] 0.223 | [8] 0.188 | [20] -0.033 | [10] 0.018 | [11] -0.131 | [12] 0.065 | [13] 0.076 | [14] 0.079 | [15] -0.061 | [16] -0.001 | [17] -0.01 | [18] 0.191 | [19] 0.006
